Reference: patent US20130040331A1, “LABEL-FREE METHODS RELATED TO hERG POTASSIUM ION [sequence]” (CORNING INCORPORATED, priority 2009, published 2013)

Tested on: mallotoxin DMR signal in HT29 cells
Test: DMR modulation index against the mallotoxin DMR signal in HT29 cells
Type: cell-based, human
Conditions: 10% modulation = 1 score unit
Excerpt: A “molecule modulation index” or like terms is an index to display the ability of the molecule to modulate the biosensor output signals of the panels of markers acting on the panel of cells. The modulation index is generated by normalizing a specific biosensor output signal parameter of a response of a cell upon stimulation with a marker in the presence of a molecule against that in the absence of any molecule.
Epic® wavelength interrogation system (Corning Inc., Corning, N.Y.) was used for whole cell sensing. This system consists of a temperature-control unit, an optical detection unit, and an on-board liquid handling unit with robotics. The detection unit is centered on integrated fiber optics, and enables kinetic measures of cellular responses with a time interval of ˜15 sec.
Cells were plated in 384-well Epic® cell culture treated plate (Corning Cat#5040) 16-20 hours before assay (15000 cells/well for HEK293 and HEK-hERG cells, 30000 cells/well for HT29 cells). […] For each assay, a 2-min baseline was initiated, followed by addition of 10 μl compound solutions (5×) and the cell responses were recorded continuously for one hour.
All studies were carried out at a controlled temperature (28° C.). […] All dose-dependent responses were analyzed using non-linear regression method with the GraphPad Prism 5. […]

SMILES | score of modulation index in coordination, HT29 coordinate
O=C(O)c1cc(-c2ccc(F)cc2F)ccc1O [diflunisal] | −9
O=C(O)c1ccccc1Nc1cccc(C(F)(F)F)c1 [flufenamic acid] | −9
